# Measurements from the supplement of paper PMC8728848.
# The list shows a part of the results.
# How the values were obtained:
# Test in all cases: glycan array binding signal (z-score within array); higher = stronger binding
# Details in all cases: glycan notation: IUPAC condensed, linker removed
# Fuc(a1-2)Gal = biological target: Fuc(a1-2)Gal
# Summary of the method: (§1)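 From the Consortium for Functional Glycomics database, 3228 arrays were curated, keeping only those whose protein sequence was available. Binding is given as a within-array Z-score averaged across arrays sharing a protein sequence and across linkers. Negative Z-scores can be read as non-binding.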
# Fuc(a1-2)Gal(b1-3)GalNAc = biological target: Fuc(a1-2)Gal(b1-3)GalNAc
# Summary of the method: as §1
# [1] = biological target: Fuc(a1-2)Gal(b1-3)GalNAc(a1-3)[Fuc(a1-2)]Gal(b1-4)Glc
# Summary of the method: as §1
# [2] = biological target: Fuc(a1-2)Gal(b1-3)GalNAc(a1-3)[Fuc(a1-2)]Gal(b1-4)GlcNAc
# Summary of the method: as §1
# [3] = biological target: Fuc(a1-2)Gal(b1-3)GalNAc(b1-3)Gal
# Summary of the method: as §1
# [4] = biological target: Fuc(a1-2)Gal(b1-3)GalNAc(b1-3)Gal(a1-4)Gal(b1-4)Glc
# Summary of the method: as §1
# [5] = biological target: Fuc(a1-2)Gal(b1-3)GalNAc(b1-4)[Neu5Ac(a2-3)]Gal(b1-4)Glc
# Summary of the method: as §1
# Fuc(a1-2)Gal(b1-3)GlcNAc = biological target: Fuc(a1-2)Gal(b1-3)GlcNAc
# Summary of the method: as §1
# [6] = biological target: Fuc(a1-2)Gal(b1-3)GlcNAc(b1-2)Man(a1-3)[Fuc(a1-2)Gal(b1-3)GlcNAc(b1-2)Man(a1-6)]Man(b1-4)GlcNAc(b1-4)GlcNAc
# Summary of the method: as §1
# [7] = biological target: Fuc(a1-2)Gal(b1-3)GlcNAc(b1-2)Man(a1-3)[Fuc(a1-2)Gal(b1-3)GlcNAc(b1-2)Man(a1-6)]Man(b1-4)GlcNAc(b1-4)[Fuc(a1-6)]GlcNAc
# Summary of the method: as §1
# [8] = biological target: Fuc(a1-2)Gal(b1-3)GlcNAc(b1-3)Gal(b1-4)Glc
# Summary of the method: as §1
# [9] = biological target: Fuc(a1-2)Gal(b1-3)GlcNAc(b1-3)GalNAc
# Summary of the method: as §1
# [10] = biological target: Fuc(a1-2)Gal(b1-3)GlcNAc(b1-3)[Fuc(a1-2)Gal(b1-3)GlcNAc(b1-6)]GalNAc
# Summary of the method: as §1
# [11] = biological target: Fuc(a1-2)Gal(b1-3)GlcNAc(b1-3)[Gal(b1-4)GlcNAc(b1-6)]Gal(b1-4)Glc
# Summary of the method: as §1
# [12] = biological target: Fuc(a1-2)Gal(b1-3)GlcNAc(b1-3)[Neu5Ac(a2-6)Gal(b1-4)GlcNAc(b1-6)]Gal(b1-4)Glc
# Summary of the method: as §1
# [13] = biological target: Fuc(a1-2)Gal(b1-3)GlcNAc6S
# Summary of the method: as §1
# [14] = biological target: Fuc(a1-2)Gal(b1-3)[Fuc(a1-4)]GlcNAc
# Summary of the method: as §1
# [15] = biological target: Fuc(a1-2)Gal(b1-3)[Fuc(a1-4)]GlcNAc(b1-2)Man(a1-3)[Fuc(a1-2)Gal(b1-3)[Fuc(a1-4)]GlcNAc(b1-2)Man(a1-3)]Man(b1-4)GlcNAc(b1-4)GlcNAc
# Summary of the method: as §1
# [16] = biological target: Fuc(a1-2)Gal(b1-3)[Fuc(a1-4)]GlcNAc(b1-2)Man(a1-3)[Fuc(a1-2)Gal(b1-3)[Fuc(a1-4)]GlcNAc(b1-2)Man(a1-6)]Man(b1-4)GlcNAc(b1-4)[Fuc(a1-6)]GlcNAc(b1-4)[Fuc(a1-6)]GlcNAc
# Summary of the method: as §1
# [17] = biological target: Fuc(a1-2)Gal(b1-3)[Fuc(a1-4)]GlcNAc(b1-3)[Fuc(a1-3)[Gal(b1-4)]GlcNAc(b1-6)]Gal(b1-4)Glc
# Summary of the method: as §1
# [18] = biological target: Fuc(a1-2)Gal(b1-3)[Fuc(a1-4)]GlcNAc(b1-3)[Gal(b1-4)GlcNAc(b1-6)]Gal(b1-4)Glc
# Summary of the method: as §1
# Fuc(a1-2)Gal(b1-4)Glc = biological target: Fuc(a1-2)Gal(b1-4)Glc
# Summary of the method: as §1
# Fuc(a1-2)Gal(b1-4)Glc6S = biological target: Fuc(a1-2)Gal(b1-4)Glc6S
# Summary of the method: as §1
# Fuc(a1-2)Gal(b1-4)GlcNAc = biological target: Fuc(a1-2)Gal(b1-4)GlcNAc
# Summary of the method: as §1
# [19] = biological target: Fuc(a1-2)Gal(b1-4)GlcNAc(b1-2)Man
# Summary of the method: as §1
# [20] = biological target: Fuc(a1-2)Gal(b1-4)GlcNAc(b1-2)Man(a1-3)[Fuc(a1-2)Gal(b1-4)GlcNAc(b1-2)Man(a1-6)]Man(b1-4)GlcNAc(b1-4)GlcNAc
# Summary of the method: as §1
# [21] = biological target: Fuc(a1-2)Gal(b1-4)GlcNAc(b1-2)Man(a1-3)[Fuc(a1-2)Gal(b1-4)GlcNAc(b1-2)Man(a1-6)]Man(b1-4)GlcNAc(b1-4)[Fuc(a1-6)]GlcNAc
# Summary of the method: as §1
# [22] = biological target: Fuc(a1-2)Gal(b1-4)GlcNAc(b1-2)[Fuc(a1-2)Gal(b1-4)GlcNAc(b1-4)]Man(a1-3)[Fuc(a1-2)Gal(b1-4)GlcNAc(b1-2)Man(a1-6)]Man(b1-4)GlcNAc(b1-4)GlcNAc
# Summary of the method: as §1
# [23] = biological target: Fuc(a1-2)Gal(b1-4)GlcNAc(b1-3)Gal(b1-4)GlcNAc
# Summary of the method: as §1
# [24] = biological target: Fuc(a1-2)Gal(b1-4)GlcNAc(b1-3)Gal(b1-4)GlcNAc(b1-2)Man(a1-3)[Fuc(a1-2)Gal(b1-4)GlcNAc(b1-3)Gal(b1-4)GlcNAc(b1-2)Man(a1-6)]Man(b1-4)GlcNAc(b1-4)GlcNAc
# Summary of the method: as §1
binder,measurement,setting,value
"GroEL (Clostridium difficile), Q18CT5 (protein) MAKEIKFSEETRRALEAGVNKLADTVKVTLGPKGRNVILDKKFGSPLITNDGVTIAKEIELEDRFENMGAQLVKEVATKTNDVAGDGTTTATVLAQAIIREGLKNVTAGANPILLRKGIQKAVTVAVEELKNQSRIVETQEAISQVASISAGDEEVGKLIAEAMEIVGKDGVITVEESQTMNTELDAVEGMQFDRGFVSAYMVTDVDKMEAVLNDPYILITDKKISNIQELLPVLEQIVQQGKKLLIIAEDVEGEALSTLVVNKLRGTFDVVAVKAPGFGDRRKEMLQDIAILTGAQVISEELGYDLKEADLSMLGRASSVKVTKESTTIVDGSGDKKAIEDRVTQIKHQVEQTTSDFDREKLMERLAKLAGGVAVVKVGAATEVELKERKLRIEDALNATRAAVEEGIVAGGGTAFVSVIPAIGTLIESLEGEVKLGAQIVKKALEEPLRQIAINAGLEGAVIVQNVVNSEAETGFDALNEKYVNMIEAGIVDPTKVSRSALQNAASIASTFLTTEAAVADLPEKEDAGMPGMGGGMPGMM",glycan array binding signal (z-score),Fuc(a1-2)Gal,0.721
same,glycan array binding signal (z-score),Fuc(a1-2)Gal(b1-3)GalNAc,0.484
same,glycan array binding signal (z-score),[1],1.24
same,glycan array binding signal (z-score),[2],-0.541
same,glycan array binding signal (z-score),[3],-0.678
same,glycan array binding signal (z-score),[4],1.31
same,glycan array binding signal (z-score),[5],0.152
same,glycan array binding signal (z-score),Fuc(a1-2)Gal(b1-3)GlcNAc,0.168
same,glycan array binding signal (z-score),[6],3.73
same,glycan array binding signal (z-score),[7],-0.071
same,glycan array binding signal (z-score),[8],0.433
same,glycan array binding signal (z-score),[9],-0.274
same,glycan array binding signal (z-score),[10],0.68
same,glycan array binding signal (z-score),[11],-0.885
same,glycan array binding signal (z-score),[12],-0.133
same,glycan array binding signal (z-score),[13],-1.02
same,glycan array binding signal (z-score),[14],0.147
same,glycan array binding signal (z-score),[15],0.895
same,glycan array binding signal (z-score),[16],1.04
same,glycan array binding signal (z-score),[17],0.284
same,glycan array binding signal (z-score),[18],0.461
same,glycan array binding signal (z-score),Fuc(a1-2)Gal(b1-4)Glc,2.35
same,glycan array binding signal (z-score),Fuc(a1-2)Gal(b1-4)Glc6S,-0.549
same,glycan array binding signal (z-score),Fuc(a1-2)Gal(b1-4)GlcNAc,-0.198
same,glycan array binding signal (z-score),[19],0.115
same,glycan array binding signal (z-score),[20],2.28
same,glycan array binding signal (z-score),[21],0.181
same,glycan array binding signal (z-score),[22],-1.45
same,glycan array binding signal (z-score),[23],-0.499
same,glycan array binding signal (z-score),[24],1.19
